The record followed here is paper PMC11980659.

Amino acid sequences for entries named in this document (tags omitted).
UniProt P35222: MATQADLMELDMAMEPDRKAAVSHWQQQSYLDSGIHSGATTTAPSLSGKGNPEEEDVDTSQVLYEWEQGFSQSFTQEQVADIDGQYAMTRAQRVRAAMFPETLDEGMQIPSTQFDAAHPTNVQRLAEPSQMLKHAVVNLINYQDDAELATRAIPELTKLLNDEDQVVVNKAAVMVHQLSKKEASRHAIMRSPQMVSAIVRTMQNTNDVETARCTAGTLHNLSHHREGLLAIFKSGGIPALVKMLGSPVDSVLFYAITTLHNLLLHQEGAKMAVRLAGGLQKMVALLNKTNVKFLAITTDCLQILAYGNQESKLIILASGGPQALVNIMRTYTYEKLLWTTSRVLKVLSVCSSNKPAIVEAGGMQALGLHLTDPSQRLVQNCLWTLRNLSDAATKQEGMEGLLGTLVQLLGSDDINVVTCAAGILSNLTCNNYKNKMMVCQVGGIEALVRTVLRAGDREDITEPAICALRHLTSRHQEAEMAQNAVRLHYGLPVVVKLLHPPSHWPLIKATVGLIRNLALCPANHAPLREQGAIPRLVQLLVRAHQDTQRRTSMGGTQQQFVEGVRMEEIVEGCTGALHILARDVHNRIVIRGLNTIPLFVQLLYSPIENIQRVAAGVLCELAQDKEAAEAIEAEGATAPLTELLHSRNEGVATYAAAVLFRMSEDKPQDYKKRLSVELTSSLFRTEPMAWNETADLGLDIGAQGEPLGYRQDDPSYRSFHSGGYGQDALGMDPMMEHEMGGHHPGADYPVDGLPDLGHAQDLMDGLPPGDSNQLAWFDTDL
UniProt P23528: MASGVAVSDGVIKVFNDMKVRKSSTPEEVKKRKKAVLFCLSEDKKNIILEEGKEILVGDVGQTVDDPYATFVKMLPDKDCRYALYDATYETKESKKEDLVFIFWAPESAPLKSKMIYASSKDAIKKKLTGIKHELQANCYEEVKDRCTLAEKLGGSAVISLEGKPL

Results are given in words; binding and its absence hold for the method and conditions named. Binding seen in cells or lysates may run through a third protein. Some binding calls cover weakened binding; strength is not graded here.

In the experiment the target is FLAG-β-catenin (UniProt P35222). Put plainly: co-IP; exogenously expressed proteins in HEK293T cells; HA-CFL1 (WT or mutant) co-expressed with FLAG-β-catenin, immunoprecipitation by anti-FLAG antibody.

Take “HA-CFL1 (WT) (from UniProt P23528 1-166)”: the binding entry was “binds”.
